Reference: the supplement of paper PMC10849652
The list shows a part of the results.

Sequences of proteins named here, by UniProt entry; tags and fusion partners are left off. A change or cut given only in a name is not applied to a line headed by its entry.
UniProt Q9UHC7: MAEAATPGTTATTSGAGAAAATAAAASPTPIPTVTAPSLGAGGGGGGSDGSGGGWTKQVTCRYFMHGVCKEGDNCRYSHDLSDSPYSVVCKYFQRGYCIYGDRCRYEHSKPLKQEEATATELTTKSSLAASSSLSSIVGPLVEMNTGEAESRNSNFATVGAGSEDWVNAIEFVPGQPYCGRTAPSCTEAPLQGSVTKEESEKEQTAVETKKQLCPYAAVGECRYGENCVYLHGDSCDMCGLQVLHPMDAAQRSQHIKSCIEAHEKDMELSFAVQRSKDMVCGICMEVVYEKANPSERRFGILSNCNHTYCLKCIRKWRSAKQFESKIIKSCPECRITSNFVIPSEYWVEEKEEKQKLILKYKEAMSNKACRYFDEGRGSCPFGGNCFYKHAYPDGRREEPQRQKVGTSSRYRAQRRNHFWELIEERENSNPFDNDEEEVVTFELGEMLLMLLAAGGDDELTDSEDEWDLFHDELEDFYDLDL
UniProt Q96BX8: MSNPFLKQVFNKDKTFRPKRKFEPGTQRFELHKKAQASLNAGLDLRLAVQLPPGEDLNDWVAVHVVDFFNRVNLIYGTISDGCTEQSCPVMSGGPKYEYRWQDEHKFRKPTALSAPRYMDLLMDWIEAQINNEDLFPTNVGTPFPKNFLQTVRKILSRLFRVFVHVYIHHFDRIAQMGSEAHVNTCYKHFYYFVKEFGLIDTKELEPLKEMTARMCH
UniProt Q9H3L0: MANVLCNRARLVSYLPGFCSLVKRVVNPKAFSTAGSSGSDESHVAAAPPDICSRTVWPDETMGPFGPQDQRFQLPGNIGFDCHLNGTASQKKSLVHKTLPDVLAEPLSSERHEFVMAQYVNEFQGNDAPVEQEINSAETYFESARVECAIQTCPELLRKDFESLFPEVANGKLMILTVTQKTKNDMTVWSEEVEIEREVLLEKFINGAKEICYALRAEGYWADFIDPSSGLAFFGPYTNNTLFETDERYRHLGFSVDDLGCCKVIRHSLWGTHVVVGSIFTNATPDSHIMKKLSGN
UniProt Q9Y605: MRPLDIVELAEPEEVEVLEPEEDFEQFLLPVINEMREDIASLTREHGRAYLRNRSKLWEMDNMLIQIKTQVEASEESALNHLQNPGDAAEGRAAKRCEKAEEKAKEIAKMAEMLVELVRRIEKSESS
UniProt Q9Y5U8: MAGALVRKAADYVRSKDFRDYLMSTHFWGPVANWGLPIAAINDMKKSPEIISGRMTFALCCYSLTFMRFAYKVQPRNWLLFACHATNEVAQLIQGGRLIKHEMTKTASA
UniProt O96033: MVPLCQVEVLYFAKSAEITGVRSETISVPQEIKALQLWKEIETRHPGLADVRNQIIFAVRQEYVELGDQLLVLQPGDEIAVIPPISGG
UniProt Q9NPA3, whole entry, looked up: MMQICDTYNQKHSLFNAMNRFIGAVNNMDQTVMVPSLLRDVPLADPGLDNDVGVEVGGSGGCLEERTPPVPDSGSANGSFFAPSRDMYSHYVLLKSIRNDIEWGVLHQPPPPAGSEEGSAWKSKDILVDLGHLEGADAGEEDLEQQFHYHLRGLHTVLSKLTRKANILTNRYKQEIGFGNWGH
UniProt Q8IVH4: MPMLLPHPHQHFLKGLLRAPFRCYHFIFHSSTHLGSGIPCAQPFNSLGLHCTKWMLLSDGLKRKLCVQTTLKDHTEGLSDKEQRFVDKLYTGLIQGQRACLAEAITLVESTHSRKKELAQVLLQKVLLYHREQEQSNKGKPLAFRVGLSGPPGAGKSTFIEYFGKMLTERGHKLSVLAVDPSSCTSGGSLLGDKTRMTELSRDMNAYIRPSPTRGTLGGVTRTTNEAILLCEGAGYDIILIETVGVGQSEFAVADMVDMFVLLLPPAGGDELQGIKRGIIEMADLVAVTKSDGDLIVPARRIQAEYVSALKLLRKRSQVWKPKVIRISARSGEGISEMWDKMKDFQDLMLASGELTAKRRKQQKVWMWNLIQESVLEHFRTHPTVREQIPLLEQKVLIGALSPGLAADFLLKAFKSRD
UniProt Q86TA1: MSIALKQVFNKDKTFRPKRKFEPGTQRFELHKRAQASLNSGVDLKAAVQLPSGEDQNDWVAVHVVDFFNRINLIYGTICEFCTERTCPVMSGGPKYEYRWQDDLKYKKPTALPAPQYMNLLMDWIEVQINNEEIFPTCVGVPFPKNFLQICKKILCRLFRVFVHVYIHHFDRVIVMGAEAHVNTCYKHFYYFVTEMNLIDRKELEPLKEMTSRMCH
UniProt Q9Y6X9: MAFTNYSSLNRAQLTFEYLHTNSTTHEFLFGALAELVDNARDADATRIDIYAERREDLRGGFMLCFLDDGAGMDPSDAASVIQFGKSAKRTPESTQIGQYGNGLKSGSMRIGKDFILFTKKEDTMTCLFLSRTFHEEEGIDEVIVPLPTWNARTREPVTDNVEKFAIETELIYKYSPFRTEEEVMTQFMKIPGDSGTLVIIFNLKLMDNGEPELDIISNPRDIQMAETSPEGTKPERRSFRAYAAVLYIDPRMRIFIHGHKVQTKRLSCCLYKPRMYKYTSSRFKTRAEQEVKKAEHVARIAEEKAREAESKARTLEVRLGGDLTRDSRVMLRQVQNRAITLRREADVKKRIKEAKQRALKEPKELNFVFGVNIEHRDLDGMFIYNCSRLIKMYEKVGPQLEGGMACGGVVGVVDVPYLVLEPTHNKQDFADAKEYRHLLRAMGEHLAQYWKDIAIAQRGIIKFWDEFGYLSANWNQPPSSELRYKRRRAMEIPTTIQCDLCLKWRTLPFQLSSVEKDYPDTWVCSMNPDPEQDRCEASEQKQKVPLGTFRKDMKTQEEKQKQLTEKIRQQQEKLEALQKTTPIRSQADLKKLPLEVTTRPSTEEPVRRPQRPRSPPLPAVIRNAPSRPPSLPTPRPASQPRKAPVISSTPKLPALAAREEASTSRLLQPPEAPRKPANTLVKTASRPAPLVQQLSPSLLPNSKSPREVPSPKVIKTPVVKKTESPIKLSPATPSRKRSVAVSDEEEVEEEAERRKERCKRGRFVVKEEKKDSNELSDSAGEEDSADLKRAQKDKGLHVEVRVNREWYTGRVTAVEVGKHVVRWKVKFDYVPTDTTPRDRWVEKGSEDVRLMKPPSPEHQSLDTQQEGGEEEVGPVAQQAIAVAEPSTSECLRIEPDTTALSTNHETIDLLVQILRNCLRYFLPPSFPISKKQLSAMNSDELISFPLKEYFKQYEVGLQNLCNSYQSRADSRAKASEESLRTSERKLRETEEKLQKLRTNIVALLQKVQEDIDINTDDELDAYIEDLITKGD
UniProt Q29983, whole entry, looked up: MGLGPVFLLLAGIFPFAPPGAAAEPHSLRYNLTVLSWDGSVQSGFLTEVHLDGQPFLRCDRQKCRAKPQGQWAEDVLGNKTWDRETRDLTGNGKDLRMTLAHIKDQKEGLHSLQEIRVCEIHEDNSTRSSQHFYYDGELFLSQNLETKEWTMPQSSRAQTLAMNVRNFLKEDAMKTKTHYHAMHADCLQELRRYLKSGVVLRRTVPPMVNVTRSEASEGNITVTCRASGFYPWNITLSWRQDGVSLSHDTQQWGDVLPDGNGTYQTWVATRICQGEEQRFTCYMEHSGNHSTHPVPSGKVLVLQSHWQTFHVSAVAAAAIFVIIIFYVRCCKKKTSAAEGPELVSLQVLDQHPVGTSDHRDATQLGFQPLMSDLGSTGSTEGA
UniProt P08473: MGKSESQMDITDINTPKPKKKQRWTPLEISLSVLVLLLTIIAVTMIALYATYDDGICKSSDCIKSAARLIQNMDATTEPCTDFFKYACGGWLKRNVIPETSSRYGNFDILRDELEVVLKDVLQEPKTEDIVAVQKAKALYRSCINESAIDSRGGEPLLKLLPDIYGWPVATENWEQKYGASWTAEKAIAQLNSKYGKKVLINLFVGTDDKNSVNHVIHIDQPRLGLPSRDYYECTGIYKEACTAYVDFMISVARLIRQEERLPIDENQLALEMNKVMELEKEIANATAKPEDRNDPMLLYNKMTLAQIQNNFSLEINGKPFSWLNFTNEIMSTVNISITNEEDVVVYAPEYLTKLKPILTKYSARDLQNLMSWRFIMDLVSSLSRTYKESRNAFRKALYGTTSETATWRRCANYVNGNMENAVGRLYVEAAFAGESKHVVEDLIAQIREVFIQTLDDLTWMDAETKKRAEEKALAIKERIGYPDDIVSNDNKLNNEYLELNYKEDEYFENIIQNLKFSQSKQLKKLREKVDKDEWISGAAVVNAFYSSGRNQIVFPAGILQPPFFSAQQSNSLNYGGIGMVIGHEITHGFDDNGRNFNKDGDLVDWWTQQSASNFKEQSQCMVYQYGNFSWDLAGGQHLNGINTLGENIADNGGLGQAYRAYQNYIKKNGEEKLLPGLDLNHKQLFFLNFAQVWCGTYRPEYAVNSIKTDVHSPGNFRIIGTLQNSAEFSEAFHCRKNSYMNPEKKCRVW
UniProt Q95460, whole entry, looked up: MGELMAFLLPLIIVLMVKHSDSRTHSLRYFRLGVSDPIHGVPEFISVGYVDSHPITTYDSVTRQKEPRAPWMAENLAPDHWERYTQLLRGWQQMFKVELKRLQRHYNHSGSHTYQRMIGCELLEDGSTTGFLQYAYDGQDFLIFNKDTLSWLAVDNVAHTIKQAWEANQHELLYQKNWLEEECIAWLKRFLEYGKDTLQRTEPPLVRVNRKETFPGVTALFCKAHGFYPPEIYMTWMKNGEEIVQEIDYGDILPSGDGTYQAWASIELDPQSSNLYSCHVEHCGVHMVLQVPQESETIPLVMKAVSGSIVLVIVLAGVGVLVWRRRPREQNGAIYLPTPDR
UniProt Q9BU76: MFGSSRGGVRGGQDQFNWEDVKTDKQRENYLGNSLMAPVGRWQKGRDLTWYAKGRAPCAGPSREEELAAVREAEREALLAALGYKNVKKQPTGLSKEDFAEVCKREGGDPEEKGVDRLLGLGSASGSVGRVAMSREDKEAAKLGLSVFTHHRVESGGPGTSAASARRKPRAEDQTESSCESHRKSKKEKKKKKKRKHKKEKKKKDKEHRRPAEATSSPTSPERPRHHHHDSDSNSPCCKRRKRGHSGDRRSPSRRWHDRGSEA
UniProt Q6NTE8: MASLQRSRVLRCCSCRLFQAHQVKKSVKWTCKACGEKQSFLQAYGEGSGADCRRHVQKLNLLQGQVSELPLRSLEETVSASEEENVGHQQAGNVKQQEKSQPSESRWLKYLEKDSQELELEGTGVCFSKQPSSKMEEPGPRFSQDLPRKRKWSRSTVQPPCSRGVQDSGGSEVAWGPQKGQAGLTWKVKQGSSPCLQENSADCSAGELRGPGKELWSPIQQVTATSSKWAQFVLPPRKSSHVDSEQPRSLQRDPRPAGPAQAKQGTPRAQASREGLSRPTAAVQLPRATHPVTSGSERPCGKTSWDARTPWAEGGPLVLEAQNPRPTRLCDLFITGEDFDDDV
UniProt Q8TDZ2: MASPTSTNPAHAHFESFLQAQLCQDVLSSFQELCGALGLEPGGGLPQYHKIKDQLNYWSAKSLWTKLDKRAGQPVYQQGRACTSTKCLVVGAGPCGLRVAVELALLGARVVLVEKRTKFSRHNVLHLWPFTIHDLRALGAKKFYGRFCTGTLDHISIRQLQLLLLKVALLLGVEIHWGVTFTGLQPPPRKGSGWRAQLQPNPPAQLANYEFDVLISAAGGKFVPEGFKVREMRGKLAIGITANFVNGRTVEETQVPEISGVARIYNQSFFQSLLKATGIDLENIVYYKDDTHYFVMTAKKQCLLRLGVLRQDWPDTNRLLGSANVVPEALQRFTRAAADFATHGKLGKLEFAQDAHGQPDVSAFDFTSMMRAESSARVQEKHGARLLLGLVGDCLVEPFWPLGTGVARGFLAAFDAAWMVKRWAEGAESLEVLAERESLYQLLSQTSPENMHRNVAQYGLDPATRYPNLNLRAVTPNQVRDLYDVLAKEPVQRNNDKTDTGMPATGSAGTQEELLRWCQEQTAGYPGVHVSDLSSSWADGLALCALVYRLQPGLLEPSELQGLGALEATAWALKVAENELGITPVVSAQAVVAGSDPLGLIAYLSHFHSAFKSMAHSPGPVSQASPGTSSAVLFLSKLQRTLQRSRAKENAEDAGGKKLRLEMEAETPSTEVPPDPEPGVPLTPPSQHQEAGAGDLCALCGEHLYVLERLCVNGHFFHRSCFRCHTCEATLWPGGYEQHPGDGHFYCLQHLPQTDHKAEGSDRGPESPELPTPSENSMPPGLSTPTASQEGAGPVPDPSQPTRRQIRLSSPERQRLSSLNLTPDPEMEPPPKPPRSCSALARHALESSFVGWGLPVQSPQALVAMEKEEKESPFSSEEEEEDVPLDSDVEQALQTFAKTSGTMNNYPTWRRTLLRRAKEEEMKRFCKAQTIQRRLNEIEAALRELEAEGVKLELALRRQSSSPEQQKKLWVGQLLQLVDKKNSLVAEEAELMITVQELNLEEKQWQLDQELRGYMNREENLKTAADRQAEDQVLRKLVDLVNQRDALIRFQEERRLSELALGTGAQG
UniProt O95297: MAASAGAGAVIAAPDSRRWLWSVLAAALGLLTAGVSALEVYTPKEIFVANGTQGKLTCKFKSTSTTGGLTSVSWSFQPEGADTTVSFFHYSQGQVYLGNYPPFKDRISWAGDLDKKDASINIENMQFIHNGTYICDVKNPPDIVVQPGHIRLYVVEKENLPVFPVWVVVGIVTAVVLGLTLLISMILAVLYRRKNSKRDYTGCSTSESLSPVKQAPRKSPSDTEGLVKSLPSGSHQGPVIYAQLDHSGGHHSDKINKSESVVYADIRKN

compound: C1=CC(=CC=C1C2=NC3=C(N2)C=C(C=C3)C(=O)N)OC4=CC=C(C=C4)Cl; assay: log2 fold change, soluble protein after heating vs DMSO (PISA); higher = thermal stabilisation; K562 cells, 10 uM, 30 min; active = over 0.2 and 3.5 SD of the protein, either way, in both replicates (recomputed)
Method in brief: (§1)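 Thermal stability values are relative to control samples and come from duplicates. They are expressed as log2 fold changes. For measurement, K562 cells (2×10^6 cells/mL) received 10 μM compound for 30 min, and aliquots were heated for 3 min over 48°C-58°C, pooled, and extracted at 4°C in PBS with 0.5% NP-40. Soluble protein, the supernatant after 21,000xg for 90 min, was quantified by TMTpro 16plex LC-MS/MS with equalised channel sums.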

log2 fold change, inactive:
MINDY2 (UniProt Q8NBR6) 0.092, MKRN1 (UniProt Q9UHC7) 0.044, MOB3A (UniProt Q96BX8) -0.096, MMADHC (UniProt Q9H3L0) -0.034, MICALL1 (UniProt Q8N3F8) -0.103, MKRN3 (UniProt Q13064) -0.087, MIER2 (UniProt Q8N344) 0.068, MRFAP1 (UniProt Q9Y605) -0.013, MPC1 (UniProt Q9Y5U8) 0.059, MRPL18 (UniProt Q9H0U6) 0.093, MOCS2 (UniProt O96033) 0.149, MID1IP1 (UniProt Q9NPA3) 0.049, MOB2 isoform 3 (UniProt Q70IA6) -0.001, MMAA (UniProt Q8IVH4) -0.048, MLLT11 (UniProt Q13015) -0.063, MRM2 (UniProt Q9UI43) 0.031, MOB3B (UniProt Q86TA1) -0.271, MRAS (UniProt O14807) 0.123, MORC2 (UniProt Q9Y6X9) 0.051, MON1A (UniProt Q86VX9) 0, MICA (UniProt Q29983) -0.049, MME (UniProt P08473) -0.063, MOSPD1 isoform 3 (UniProt Q9UJG1) 0.153, MR1 (UniProt Q95460) 0.123, MMTAG2 (UniProt Q9BU76) 0.028, MRNIP (UniProt Q6NTE8) 0.057, MLKL (UniProt Q8NB16) 0.014, MKKS (UniProt Q9HB66) -0.113, MITF (UniProt O75030) 0.041, MICAL1 isoform 4 (UniProt Q8TDZ2) 0.07

compound: C1=CC2=C(C=CC(=C2)/C=C\3/C(=O)NC(=NCC4=CC=CS4)S3)N=C1; assay: as above
Method in brief: as §1

log2 fold change, inactive:
MPHOSPH8 isoform 2 (UniProt Q99549) -0.044, MICAL2 (UniProt O94851) 0.191, MOB3A (UniProt Q96BX8) -0.033, MMADHC (UniProt Q9H3L0) -0.031, MICALL1 (UniProt Q8N3F8) 0.04, MNT (UniProt Q99583) 0.001, MKRN3 (UniProt Q13064) 0.378, MRPL42 (UniProt Q9Y6G3) -0.176, MIER2 (UniProt Q8N344) -0.068, MRFAP1 (UniProt Q9Y605) -0.334, MPC1 (UniProt Q9Y5U8) -0.071, MOCS2 (UniProt O96033) -0.062, MPZL1 isoform 3 (UniProt O95297) -0.051, MMAA (UniProt Q8IVH4) 0.056, MRM2 (UniProt Q9UI43) 0.185, MOB3B (UniProt Q86TA1) 0.24, MORC2 (UniProt Q9Y6X9) 0.148, MICA (UniProt Q29983) 0.211, MMTAG2 (UniProt Q9BU76) -0.155, MLH1 (UniProt P40692) -0.038, MKKS (UniProt Q9HB66) -0.042, MITF (UniProt O75030) -0.011, MICAL1 isoform 4 (UniProt Q8TDZ2) 0.415

compound: C1=CC2=NC=CN=C2C=C1/C=C/3\C(=O)NC(=O)S3; assay: as above
Method in brief: as §1

log2 fold change, inactive:
MKRN1 (UniProt Q9UHC7) 0.063, MLLT10 (UniProt P55197) -0.075, MICAL2 (UniProt O94851) 0.08, MOB3A (UniProt Q96BX8) 0.037, MMADHC (UniProt Q9H3L0) -0.105, MNT (UniProt Q99583) -0.092, MRPL42 (UniProt Q9Y6G3) 0.017, MRFAP1 (UniProt Q9Y605) 0.014, MPC1 (UniProt Q9Y5U8) 0.044, MRPL18 (UniProt Q9H0U6) -0.035, MID1IP1 (UniProt Q9NPA3) -0.048, MOB2 isoform 3 (UniProt Q70IA6) 0.06, MLLT11 (UniProt Q13015) 0.165, MOB3B (UniProt Q86TA1) -0.056, MRAS (UniProt O14807) -0.03, MORC2 (UniProt Q9Y6X9) -0.097, MON1A (UniProt Q86VX9) -0.262, MICA (UniProt Q29983) -0.049, MME (UniProt P08473) 0.004, MMTAG2 (UniProt Q9BU76) -0.181, MLH1 (UniProt P40692) 0.096, MKKS (UniProt Q9HB66) 0.185
